# Results published in article PMC11549447.
# Chains of the proteins cited; added tags and fusions are not shown.
# UniProt P04150: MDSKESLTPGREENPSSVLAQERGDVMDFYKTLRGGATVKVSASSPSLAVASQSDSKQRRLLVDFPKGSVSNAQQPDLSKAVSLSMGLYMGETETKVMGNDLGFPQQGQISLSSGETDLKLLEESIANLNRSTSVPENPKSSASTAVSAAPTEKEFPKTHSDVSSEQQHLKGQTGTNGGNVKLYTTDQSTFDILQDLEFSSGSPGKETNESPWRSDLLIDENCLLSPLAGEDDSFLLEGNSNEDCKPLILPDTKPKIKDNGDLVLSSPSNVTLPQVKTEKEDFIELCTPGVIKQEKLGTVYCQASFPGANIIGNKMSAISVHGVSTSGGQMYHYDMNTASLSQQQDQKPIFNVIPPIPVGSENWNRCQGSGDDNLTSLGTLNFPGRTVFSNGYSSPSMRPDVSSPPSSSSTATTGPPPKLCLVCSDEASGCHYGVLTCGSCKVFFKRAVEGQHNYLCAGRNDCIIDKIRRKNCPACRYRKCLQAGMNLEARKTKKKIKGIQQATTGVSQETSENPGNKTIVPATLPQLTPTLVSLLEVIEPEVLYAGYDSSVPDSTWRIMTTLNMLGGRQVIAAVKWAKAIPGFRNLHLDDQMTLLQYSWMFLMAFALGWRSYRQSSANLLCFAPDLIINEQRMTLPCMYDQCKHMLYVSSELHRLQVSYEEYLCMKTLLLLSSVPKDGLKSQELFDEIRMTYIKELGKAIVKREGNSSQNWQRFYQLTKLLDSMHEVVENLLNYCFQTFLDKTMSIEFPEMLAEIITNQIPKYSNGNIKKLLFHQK
# Where a chain is given by its changes, count along the chain named. These are yes or no findings as the source states them, for the method shown. In cells and extracts the contact can be indirect. Some binding calls cover weakened binding; strength is not graded here. Sequences can lack the tags named with a protein.
# Experiments:
# PP5-FLAG-K430Q = biological target: T1, PP5-FLAG-K430Q (UniProt P53041); experiment: co-IP; anti-FLAG agarose IP of PP5-FLAG (WT or mutants) from lysate of transfected HEK293 cells, 2 h at 4 °C; washes in 20 mM Tris-HCl pH 7.4, 100 mM NaCl, 1 mM MgCl2, 0.1% NP40; endogenous partners by immunoblot; some panels with CK1δ-myc co-expressed or 2 µM IC261 for 16 h
# T1 sequence: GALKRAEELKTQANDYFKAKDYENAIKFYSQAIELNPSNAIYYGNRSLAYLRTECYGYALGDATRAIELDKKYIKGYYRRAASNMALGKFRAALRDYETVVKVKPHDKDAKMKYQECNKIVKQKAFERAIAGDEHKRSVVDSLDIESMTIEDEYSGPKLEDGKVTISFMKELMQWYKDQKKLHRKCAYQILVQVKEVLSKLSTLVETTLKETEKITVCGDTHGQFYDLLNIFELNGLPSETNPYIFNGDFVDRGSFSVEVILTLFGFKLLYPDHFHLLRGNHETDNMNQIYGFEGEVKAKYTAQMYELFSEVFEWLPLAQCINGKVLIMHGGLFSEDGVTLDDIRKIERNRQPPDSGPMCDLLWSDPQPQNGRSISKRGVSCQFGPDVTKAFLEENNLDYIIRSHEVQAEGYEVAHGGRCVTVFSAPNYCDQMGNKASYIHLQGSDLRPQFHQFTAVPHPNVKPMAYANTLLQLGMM
# [1] = biological target: T2, PP5-FLAG-T362E, phosphomimetic mutant (UniProt P53041); experiment: as above
# T2 sequence: T1 sequence with T340E, Q408K
substance,measurement,setting,value
"glucocorticoid receptor (GR), endogenous (from UniProt P04150 1-777)",binding,PP5-FLAG-K430Q,binds
same,binding,[1],binds
